From PubChem BioAssay AID662 (National Center for Advancing Translational Sciences (NCATS), 2007)
Values joined by “and” are separate entries in the source; they are usually repeats but may differ in a detail not shown here. Equal entries are not always repeated. The list shows a part of the results. The main result of the screen is listed elsewhere. These columns were measured beside it and carry no call. Most of these compounds were active or inconclusive in the main read-out, so they are no random draw. Words in brackets tell the shape of the fitted curve; partial curves, single points and poor fits give uncertain potencies.

Experiment: Cell signaling CRE-BLA (Fsk stim)
Settings: CHO CRE-bla reporter (cAMP response element driving beta-lactamase), forskolin EC10, beta-lactamase ratio; measured here: 460 nm blue channel
In short: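 Reporter-gene assay: CHO cells with beta-lactamase behind cAMP responsive elements, co-treated with compound and EC10 NKH 477 for 3 hours at 37 degrees Celsius. Activity came from the 460/530 nm CCF4 emission ratio.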

SMILES	AC50
CCN(CC)S(=O)(=O)c1cccc(-c2nnc(SCCCC(=O)c3ccccc3)o2)c1	12.6 µM [falling, single point]
Cc1c(=O)n(OCc2ccccc2F)c2ccccc2[n+]1[O-]	0.631 µM [rising, partial curve, poor fit]
c1csc(-c2nc3nc4ccccc4nc3n2Cc2ccc3c(c2)OCO3)c1	12.6 µM [rising, partial curve]
COc1nc(C)ccc1-c1noc(-c2ccco2)n1	12.6 µM [rising, partial curve]
CCN(CC(=O)Nc1ccc2c(c1)CCC2)Cc1nc2ccccc2c(=O)[nH]1	10 µM [rising, partial curve]
Nc1nnc(SCc2ccc(F)cc2Cl)s1	7.94 µM [falling, partial curve]
COc1ccc(Oc2ncc3nc(-c4ccc(Cl)cc4)c(=O)n(CCC#N)c3n2)cc1	10 µM [rising, partial curve]
NC(=O)c1ccccc1NC(=O)CN1CCOCC1	1 µM [falling, full curve]
O/N=C1\CCCc2oc3c(c21)CCCC3	12.6 µM [rising, partial curve]
COc1ccc(C)cc1NC(=O)c1cc2ccccc2o1	3.98 µM [falling, partial curve]
O=C1OC(O)C(C(Cl)Cl)=C1Cl (stereo not given)	1 µM [falling, full curve, poor fit]
COc1ccc(NC(=O)CSc2nnc(-c3ccccc3C)n2N)cc1	6.31 µM [falling, partial curve, poor fit]
COCC(=O)NCCc1ccc(S(N)(=O)=O)cc1	0.501 µM [rising, single point]
Cc1ccc(C(=O)OCc2cc3ccccc3[nH]c2=O)cc1	10 µM [falling, partial curve]
O=C(Cn1nnc(-c2ccccc2NC(=O)c2cccs2)n1)Nc1ccccc1	10 µM [rising, single point]
CCOC(=O)N1CCN(c2ccc(Cl)c(Cl)c2)CC1	20 µM [falling, single point]
CCc1c(C)nc2ncnn2c1N1CCC(C(=O)NCc2cccc(OC)c2)CC1	15.8 µM [rising, single point]
Cc1ccc(-c2nnc3n2N=C(c2ccc(Br)cc2)CS3)cc1	12.6 µM [rising, partial curve]
CCS(=O)(=O)N1CCCC(C(=O)NCc2ccc3c(c2)OCO3)C1 (stereo not given)	5.01 µM [rising, single point]
O=c1c(O)c(-c2ccc(O)c(O)c2)oc2cc(O)cc(O)c12	20 µM [falling, partial curve] and 15.8 µM [falling, partial curve, poor fit]
COC(=O)Cc1cc(=O)n(-c2nc3ccccc3s2)[nH]1	15.8 µM [falling, partial curve]
CCn1c(=O)cc(OCC(=O)Nc2ccccc2C#N)c2ccccc21	5.01 µM [rising, partial curve]
CC(=O)c1cccc(NC(=O)CN(c2ccc(F)cc2)S(C)(=O)=O)c1	15.8 µM [rising, partial curve]

Quoted from the listing.
Under AC50, `CCN(CC(=O)Nc1ccc2c(c1)CCC2)Cc1nc2ccccc2c(=O)[nH]1` has 10 µM [rising, partial curve]
Under AC50, `CCN(CC)S(=O)(=O)c1cccc(-c2nnc(SCCCC(=O)c3ccccc3)o2)c1` has 12.6 µM [falling, single point]

Further records.

SMILES	AC50
CCOC(=O)CCc1c(C)nc2ncnn2c1C	0.398 µM [falling, single point]
CCC(C)C(NC(=O)C1CCC(C)CC1)C(=O)NCc1cccnc1 (stereo not given)	0.2 µM [falling, full curve, poor fit]
Cn1c(=O)c2c(n(C)c1=O)=NC1(CCCCC1)N=2	2.51 µM [falling, full curve, poor fit]
CCOC(=O)c1ccccc1NC(=O)CSc1nc2ccccc2o1	15.8 µM [rising, single point]
CN(C)c1ccc(-c2ccc3ncnc(NCc4ccccc4)c3c2)cc1	3.16 µM [rising, single point]
COc1ccc(CN2CCN(c3ncccn3)CC2)c(OC)c1	0.251 µM [rising, full curve, poor fit]
CSCCC(NS(=O)(=O)c1ccc(Cl)cc1)C(=O)OCC(=O)N1CCOCC1 (stereo not given)	5.01 µM [falling, single point]
O=C(Nc1nc(-c2cccs2)cs1)c1ccc(Cl)s1	25.1 µM [falling, single point]
Cc1cccc(N(C)c2cc(C)nc3nc(C)nn23)c1	10 µM [rising, partial curve]
Cc1c(C)n(Cc2ccccc2)c2ncnc(N)c12	2.51 µM [falling, partial curve]
CC(=O)NCCNc1ncnc2ccc(-c3ccccc3Cl)cc12	10 µM [rising, partial curve]
CCOc1ccc(OCC)c(NC(=O)c2ccc(CNc3c(N4CCOCC4)c(=O)c3=O)cc2)c1	6.31 µM [rising, partial curve]
COC(=O)CCC(=O)Nc1sc2c(c1C#N)CCCC2	25.1 µM [rising, single point]
COc1ccc(NC(=O)C2CCCN2c2ccc(OC)c(OC)c2)cc1OC (stereo not given)	5.01 µM [rising, partial curve]
CCNc1ncc2nc(-c3cccs3)c(=O)n(-c3ccccc3)c2n1	2 µM [rising, full curve]
CSc1ccc(C2C(C#N)=C(N)Oc3cc4c(cc32)OCO4)cc1 (stereo not given)	12.6 µM [rising, single point]
O=C(CCCn1c(=O)c2ccccc2n(Cc2ccccc2)c1=O)NCc1ccco1	25.1 µM [rising, single point]
COc1ccccc1CNC(=O)CNC(=O)Cn1cnc2ccccc2c1=O	0.501 µM [falling, full curve]
COc1cc(C(c2sc3nc(C)nn3c2O)N2CC(C)OC(C)C2)cc(OC)c1OC (stereo not given)	10 µM [rising, partial curve]
N#Cc1nc(-c2ccco2)oc1N1CCCC1	10 µM [rising, partial curve]
C/C=C/Cn1c(N(C)Cc2ccccc2)nc2c1c(=O)[nH]c(=O)n2C	6.31 µM [rising, partial curve]
COc1ccc(-n2c(=O)c3c4c(sc3n(CC(=O)NCc3ccco3)c2=O)CCC4)c(OC)c1	0.794 µM [rising, full curve]
COc1ccc(OC)c(NC=C2C(=O)OC(C)(C)OC2=O)c1	25.1 µM [rising, single point]
CCOC(=O)c1c(NC(=O)CN2CCCCC2)sc2c1CCCC2O (stereo not given)	7.94 µM [rising, partial curve]

SMILES	AC50
O=C(CN1CCN(c2ccccn2)CC1)Nc1ccc(Cl)c(C(F)(F)F)c1	25.1 µM [falling, single point]
COc1cccc(C(=O)CSc2nc3ccccc3n2CC(=O)N2CCOCC2)c1	10 µM [rising, partial curve]
COc1cccc(Cn2c(=O)c(C)nc3cnc(N4CCOCC4)nc32)c1	3.16 µM [rising, full curve]
CCOc1ccc(-c2cc(CCCC(=O)NCCCOC)no2)cc1	0.316 µM [falling, partial curve]
COc1ccc(NC(C)=O)c2nc(C)c(C)nc12	12.6 µM [rising, single point]
Cc1cccc(CNc2ncnc3ccc(-c4ccccc4C#N)cc23)c1	3.16 µM [rising, full curve, poor fit]
CC(=O)Nc1coc2ccc(Br)cc12	31.6 µM [falling, partial curve]
CSc1ccc(-c2c(C#N)c(N)nc3c2CCCC3)cc1	7.94 µM [falling, partial curve]
CCN(CC)c1nc(Nc2ccc(Cl)cc2)nc(OCC#N)n1	5.01 µM [rising, full curve]
CN(C)c1cccc(-c2nnc(SCCCC#N)o2)c1	0.631 µM [falling, full curve, poor fit]
COc1ccc(C(=O)Oc2c(C)occc2=O)cc1OC	10 µM [rising, partial curve]
CCCCC(CC)Cn1c(N)c(C#N)c2nc3ccccc3nc21 (stereo not given)	12.6 µM [rising, partial curve]
CCN1C=C(C(=O)OC)C(c2cccc(C)c2)C(C(=O)OC)=C1	10 µM [rising, partial curve]
CCOC(=O)COc1ccc2c(c1)C(=O)CC(C)(C)O2	25.1 µM [rising, single point]
CC/C(=C(\c1ccccc1)c1ccc(OCCN(C)C)cc1)c1ccccc1	31.6 µM [falling, single point]
O=C(OCCNC(=O)c1ccc2ccccc2n1)c1cccnc1	12.6 µM [rising, partial curve]
CCc1oc2ccccc2c1C(=O)c1cc(Br)c(O)c(Br)c1	5.01 µM [rising, single point]
COc1nc(-c2ccccc2)ccc1-c1noc(-c2ccccc2)n1	3.98 µM [rising, partial curve]
Cc1cccc(C)c1OCc1nnc2c3cnn(C)c3ncn12	12.6 µM [rising, single point]
O=C(NCC1CCCO1)C1CCC(N2C(=O)c3ccccc3C2=O)CC1 (stereo not given)	0.794 µM [rising, full curve]
CC(C)(C)c1ccc(OCC(=O)NCc2ccco2)c(Br)c1	10 µM [falling, partial curve]
COc1ccc(Cl)cc1NC(=O)CSc1nncn1-c1cccnc1	6.31 µM [rising, partial curve]

Shown comma-delimited: part of the list above.
SMILES,AC50
CCN(CC(=O)Nc1ccc2c(c1)CCC2)Cc1nc2ccccc2c(=O)[nH]1,"10 µM [rising, partial curve]"
CCn1c(=O)cc(OCC(=O)Nc2ccccc2C#N)c2ccccc21,"5.01 µM [rising, partial curve]"
CN(C)c1ccc(-c2ccc3ncnc(NCc4ccccc4)c3c2)cc1,"3.16 µM [rising, single point]"
